Laboratory results reported in patent US7897591B2, “Method of treating fatty liver disease” (priority 2005, dated 2011).

System: C57BL/6 mice
Assay: Fatty acid analysis of serum and liver lipids (triglycerides, phospholipids) in HCD mouse model
Assay type: in vivo
Settings: HCD+MAR mice; >0.2 = essential fatty acid deficiency; mean±SEM
Protocol: Experiments were performed on 5-6 week-old C57BL/6 mice (Jackson Laboratories, Bar Harbor, Me.). The animals, in groups of five, were housed in a barrier room and were acclimated to their environment for at least 72 hours prior to the initiation of each experiment. Animal protocols complied with the NIH Animal Research Advisory Committee guidelines and were approved by the Children's Hospital Boston Animal Care and Use Committee. Control animals (n=5) received normal chow and water ad libitum. All animals in the experimental groups were fed a fat-free, high carbohydrate liquid diet (HCD) ad libitum placed in one bottle per cage as previously described (3, 62). No additional sources of nutrition or hydration were provided. The HCD liquid solution contained 20% dextrose, a commercial mixture of 2% essential and nonessential amino acids (TrophAmine, B. Braun Medical, Irvine, Calif.), 2 ml trace elements (Trace Elements Injection 4, USP—Pediatric, American Regent Shirley, N.Y.), and 5 ml multivitamins (M.V.I. Pediatric™, Mayne Pharma, Paramus, N.J.). Each liter of HCD contained 30 meq sodium, 20 meq potassium chloride, 15 meq calcium, 10 meq magnesium, and 10 mM phosphate. The bottles were replaced daily with fresh HCD solution. HCD animals (n=5) received HCD only and no additional treatment for 19 days. […]

Which “Mead acid:Arachidonic acid ratio (M:A) in serum lipid” value does the source give for CNC(=O)[C@@H](NC(=O)[C@H](CC(C)C)[C@H](O)C(=O)NO)C(C)(C)C [Marimastat] here?
The value was 0.47±0.08.
